Results as given in patent US20240425571A1, “GLYCOPROTEIN A REPETITIONS PREDOMINANT (GARP)-BINDING ANTIBODIES AND USES THEREOF” (OHIO STATE INNOVATION FOUNDATION, priority 2021, published 2024).
Substitutions are numbered along the chain they refer to. Results are given in words; binding and its absence hold for the method and conditions named. Some binding calls cover weakened binding; strength is not graded here.

The chains behind the UniProt entries cited, without tags or fusion partners. Where a name states a change or a piece, a line headed by the entry shows the natural chain unless it says otherwise. Residues count along the entry.
UniProt Q14392, residues 20-627: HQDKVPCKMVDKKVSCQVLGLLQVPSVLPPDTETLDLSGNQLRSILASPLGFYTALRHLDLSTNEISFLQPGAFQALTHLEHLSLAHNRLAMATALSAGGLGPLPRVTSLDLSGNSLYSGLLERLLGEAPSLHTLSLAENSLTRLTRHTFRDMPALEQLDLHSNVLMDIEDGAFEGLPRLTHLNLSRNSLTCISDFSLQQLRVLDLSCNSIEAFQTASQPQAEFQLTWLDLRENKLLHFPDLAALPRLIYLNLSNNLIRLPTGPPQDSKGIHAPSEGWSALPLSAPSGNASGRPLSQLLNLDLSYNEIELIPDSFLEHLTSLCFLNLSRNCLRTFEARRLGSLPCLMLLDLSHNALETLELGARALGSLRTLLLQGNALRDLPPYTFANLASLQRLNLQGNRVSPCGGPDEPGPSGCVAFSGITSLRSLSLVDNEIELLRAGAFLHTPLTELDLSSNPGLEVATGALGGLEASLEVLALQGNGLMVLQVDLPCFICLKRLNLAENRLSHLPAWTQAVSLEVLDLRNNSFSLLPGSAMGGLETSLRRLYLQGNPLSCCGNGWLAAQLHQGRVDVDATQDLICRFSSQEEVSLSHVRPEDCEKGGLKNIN
UniProt P01137: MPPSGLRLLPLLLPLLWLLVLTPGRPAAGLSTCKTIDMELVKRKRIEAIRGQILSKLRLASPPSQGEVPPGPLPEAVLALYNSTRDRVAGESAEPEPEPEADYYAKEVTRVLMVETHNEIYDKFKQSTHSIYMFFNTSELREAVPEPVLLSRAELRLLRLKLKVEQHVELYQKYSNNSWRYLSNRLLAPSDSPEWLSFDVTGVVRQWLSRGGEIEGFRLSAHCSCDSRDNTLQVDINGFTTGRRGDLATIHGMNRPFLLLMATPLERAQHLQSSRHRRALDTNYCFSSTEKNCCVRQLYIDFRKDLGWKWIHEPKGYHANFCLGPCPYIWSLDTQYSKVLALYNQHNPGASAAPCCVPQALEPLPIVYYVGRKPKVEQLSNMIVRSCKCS

What was measured:
[1] = biological target: T1, membrane-bound GARP-LTGFβ complex (human GARP with latent TGFβ1) (human) (UniProt Q14392+P01137); assay: flow cytometry on human platelets (drawn table)
[2] = biological target: T1, membrane-bound GARP-LTGFβ complex (human GARP with latent TGFβ1) (human); assay: flow cytometry on 293 cells transfected with hGARP and TGFβ1 (GARP-LAP complex)
[3] = biological target: human GARP (antigen, construct not stated) (human) (UniProt Q14392); assay: Gator label-free kinetics
[4] = biological target: human GARP (antigen, construct not stated) (human) (UniProt Q14392); assay: summary of Example 6

B1: 5C5 (antibody, V domains shown)
VH: EVKLVESGGGSVKPGGSLKLSCAASGFTFSNYVMSWVRQTPEKRLEWVATISSGGSYTYYPDSVKGRLTISRDNAKNTLYLQMSSLRSEDTAMYYCARGYDNGDYVMDYWGQGTSVTVSS
VL: DIVLTQSPASLAVSLGQRATISCRASESVDTYGNSFMHWYQQIPGQPPKVLIYRASNLESGIPARFSGSGSRTDFTLTINPVEAGDVATYYCQQTNEHPPTFGGGTKLEIK
With B1 the binding [1] was “binds” and the binding [2] was “binds”.

B2: huPIIO-1VH1VL1 (antibody, V domains shown)
VH: QVQLQESGPGLVKPSQTLSLTCTVSGYSITSDYAWNWIRQFPGNKLEWMGYISYSGSTSYTPSLKSRVTISRDTSKNHFSLKLSSVTAADTAVYYCAKSGGDYYGSSSYWYFDVWGQGTMVTVSS
VL: DIVLTQSPSSLAVSLGERATMNCKSSQSLLNSRSQKNYLAWYQQKPGQPPKLLIYGASTRGSGVPDRFSGSGSGTDFTLTISSLQAEDVAVYYCQNDHSYPFTFGQGTKLEIKR
With B2 the binding [3] was “binds”.

B3: huPIIO-1VH1VL2 (antibody, V domains shown)
VH: B2 VH
VL: B2 VL with A19V, L84V
B3 was tested, and the binding [4] was “binds” and the binding [3] was “binds”.

B4: huPIIO-1VH2VL1 (antibody, V domains shown)
VH: B2 VH with V68I, S80F
VL: B2 VL
In the case of B4, the binding [3] is reported as “binds”.
